Data published in patent publication US6607711B2, “Mouth hygienic composition for the treatment of halitosis” (priority 1997, dated 2003).

Assay: Organoleptic qualities (taste) of zinc compounds

Substance: Zinc gluconate
- organoleptic qualities / taste: very poor
